Assay results taken from the supplement of paper PMC10331698.
± gives the standard deviation of the averaged measurements. Most values lie at the level of the controls, where differences are scatter.

Key:
Assay in all cases: level (log10 ratio to DMSO vehicle control); higher = higher biomarker level / cell amount than vehicle control
[1] = compound: C=C(C)C(=O)OCC(F)(F)C(F)(F)C(F)(F)C(F)(F)C(F)(F)C(F)(F)C(F)(F)F; details: in DMSO
Procedure: (§1)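 BioMAP Diversity Plus panel of 12 human primary cell co-culture systems (3C, 4H, LPS, SAg, BT, BF4T, BE3C, CASM3C, HDF3CGF, KF3CT, MyoF, Mphg). Compounds were added 1 h before stimulation and left for 24 h (MyoF 48 h; BT 72 h for soluble read-outs or 6 d for IgG). Biomarkers were read by ELISA, cytotoxicity by SRB, PBMC viability and proliferation by Alamar Blue. Each well value was divided by the mean of 8 DMSO control wells on the same plate and log10 transformed; duplicate blinded samples were tested at 4 concentrations.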

[2] = compound: FC(F)(F)C(F)(F)C(F)(F)CC1CO1 [1H,1H-Heptafluorobutyl epoxide]; details: 2200 nM; in DMSO
Procedure: as §1

[3] = compound: C=CC(=O)OCC(F)(F)C(F)(F)C(F)(F)C(F)(F)C(F)(F)C(F)(F)C(F)(F)F [1H,1H-Perfluorooctyl acrylate]; details: 2200 nM; in DMSO
Procedure: as §1

[4] = compound: FC(F)(F)C(F)(F)C(F)(F)CI [Heptafluorobutyl iodide]; details: 2200 nM; in DMSO
Procedure: as §1

[5] = compound: NC(=O)C(F)(F)C(F)(F)C(F)(F)C(F)F; details: in DMSO
Procedure: as §1

[6] = compound: OCC(F)(F)C(F)(F)C(F)(F)C(F)(F)C(F)(F)C(F)F [1H,1H,7H-Dodecafluoro-1-heptanol]; details: 2200 nM; in DMSO
Procedure: as §1

[7] = compound: O=C(O)C(F)(F)C(F)(F)C(F)F [4H-Perfluorobutanoic acid]; details: in DMSO
Procedure: as §1

[8] = compound: O=S(=O)(F)C(F)(F)C(F)(F)C(F)(F)C(F)(F)C(F)(F)C(F)(F)C(F)(F)C(F)(F)F [Perfluorooctanesulfonyl fluoride]; details: 2200 nM; in DMSO
Procedure: as §1

[9] = compound: CO[Si](C)(CCC(F)(F)C(F)(F)C(F)(F)C(F)(F)C(F)(F)C(F)(F)F)OC [Dimethoxymethyl((perfluorohexyl)ethyl)silane]; details: in DMSO
Procedure: as §1

[10] = compound: O=S(=O)(OCC(F)(F)F)C(F)(F)C(F)(F)C(F)(F)C(F)(F)F [2,2,2-Trifluoroethyl perfluorobutanesulfonate]; details: 2200 nM; in DMSO
Procedure: as §1

[11] = compound: NS(=O)(=O)C(F)(F)C(F)(F)C(F)(F)C(F)(F)C(F)(F)C(F)(F)C(F)(F)C(F)(F)F [Perfluorooctanesulfonamide]; details: in DMSO
Procedure: as §1

[12] = compound: O=S(=O)(O)C(F)(F)C(F)(F)C(F)(F)C(F)(F)C(F)(F)C(F)(F)C(F)(F)C(F)(F)F [Perfluorooctanesulfonic acid]; details: 2200 nM; in DMSO
Procedure: as §1

[13] = compound: C=CC(F)(F)C(F)(F)C(F)(F)C(F)(F)C(F)(F)C(F)(F)C(F)(F)C(F)(F)C=C [1,8-Divinylperfluorooctane]; details: in DMSO
Procedure: as §1

[14] = compound: NC(=O)C(F)(F)C(F)(F)F [Pentafluoropropionamide]; details: 2200 nM; in DMSO
Procedure: as §1

[15] = compound: COC(=O)C(F)(F)C(F)(F)OC(F)(C(F)(F)F)C(F)(F)OC(F)=C(F)F [Methyl perfluoro(3-(1-ethenyloxypropan-2-yloxy)propanoate)]; details: in DMSO
Procedure: as §1

[16] = compound: O=S(=O)(O)C(F)(F)C(F)(F)C(F)(F)C(F)(F)C(F)(F)C(F)(F)C(F)(F)C(F)(F)F [Potassium perfluorooctanesulfonate]; details: 2200 nM; in DMSO
Procedure: as §1

[17] = compound: OCCCCC(F)(F)C(F)(F)C(F)(F)C(F)(F)F [4:4 Fluorotelomer alcohol]; details: 2200 nM; in DMSO
Procedure: as §1

[18] = compound: O=P(O)(O)CCC(F)(F)C(F)(F)C(F)(F)C(F)(F)C(F)(F)C(F)(F)F [2-(Perfluorohexyl)ethylphosphonic acid]; details: 2200 nM; in DMSO
Procedure: as §1

Test System | level (log10) ([1]; 740 nM) | level (log10) ([1]; 2200 nM) | level (log10) [2] | level (log10) [3] | level (log10) [4] | level (log10) ([5]; 2200 nM) | level (log10) ([5]; 6700 nM) | level (log10) ([5]; 20000 nM) | level (log10) ([5]; 60000 nM) | level (log10) [6] | level (log10) ([7]; 2200 nM) | level (log10) ([7]; 6700 nM) | level (log10) ([7]; 20000 nM) | level (log10) ([7]; 60000 nM) | level (log10) [8] | level (log10) ([9]; 740 nM) | level (log10) ([9]; 2200 nM) | level (log10) [10] | level (log10) ([11]; 2200 nM) | level (log10) ([11]; 6700 nM) | level (log10) ([11]; 20000 nM) | level (log10) [12] | level (log10) ([13]; 740 nM) | level (log10) ([13]; 2200 nM) | level (log10) [14] | level (log10) ([15]; 740 nM) | level (log10) ([15]; 2200 nM) | level (log10) [16] | level (log10) [17] | level (log10) [18]
CASM3C:Proliferation | -0.053 ± 0.044 | 0.0265 ± 0.0064 | -0.0715 ± 0.061 | -0.003 ± 0.037 | 0.0175 ± 0.013 | -0.0155 ± 0.081 | 0.002 ± 0.071 | -0.0145 ± 0.023 | 0.014 ± 0.025 | 0.007 ± 0.0042 | 0.022 ± 0.033 | 0.0045 ± 0.011 | -0.0185 ± 0.066 | 0.0045 ± 0.04 | -0.0105 ± 0.0021 | 0.0075 ± 0.032 | 0.0325 ± 0.016 | -0.008 ± 0.0085 | -0.0155 ± 0.071 | -0.027 ± 0.0085 | 0.0415 ± 0.032 | 0.0035 ± 0.0035 | -0.0385 ± 0.018 | -0.0595 ± 0.12 | -0.0195 ± 0.013 | -0.014 ± 0.048 | -0.0115 ± 0.0078 | -0.007 ± 0.0099 | -0.004 ± 0.033 | -0.0445 ± 0.021
SAg:CD40 | -0.0265 ± 0.0078 | -0.044 ± 0.014 | -0.0025 ± 0.042 | 0.0055 ± 0.011 | -0.0445 ± 0.066 | -0.0175 ± 0.0035 | -0.023 ± 0.0028 | -0.0155 ± 0.019 | -0.02 ± 0.028 | 0.008 ± 0.016 | -0.016 ± 0.051 | 0 ± 0.0028 | -0.056 ± 0.045 | -0.028 ± 0.044 | -0.028 ± 0.034 | -0.034 ± 0.0042 | -0.0185 ± 0.0064 | -0.013 ± 0.031 | -0.011 ± 0.0071 | -0.028 ± 0.0042 | -0.1085 ± 0.00071 | -0.0175 ± 0.03 | -0.0145 ± 0.021 | -0.0275 ± 0.018 | -0.0315 ± 0.047 | -0.015 ± 0.017 | -0.0295 ± 0.0021 | -0.0125 ± 0.018 | 0.013 ± 0.0014 | -0.0005 ± 0.005
lMphg:CD40 | -0.017 ± 0.011 | -0.015 ± 0.0014 | 0.008 ± 0.031 | 0.027 ± 0.044 | -0.019 ± 0.017 | -0.012 ± 0.016 | -0.026 ± 0.027 | -0.011 ± 0.0071 | -0.017 ± 0.0042 | -0.034 ± 0.03 | 0.0145 ± 0.03 | 0.0065 ± 0.028 | -0.0035 ± 0.039 | 0.007 ± 0.024 | 0.001 ± 0.0042 | -0.01 ± 0.011 | 0 ± 0.0099 | 0.004 | -0.017 ± 0.014 | -0.0365 ± 0.016 | -0.0925 ± 0.0092 | 0.004 ± 0.016 | -0.012 ± 0.044 | -0.0205 ± 0.029 | -0.0175 ± 0.0035 | 0.027 ± 0.02 | 0.0045 ± 0.028 | -0.009 ± 0.0014 | -0.04 ± 0.0042 | -0.0115 ± 0.005
HDF3CGF:CXCL9/MIG | 0.0005 ± 0.03 | -0.023 ± 0.021 | -0.011 ± 0.048 | -0.0015 ± 0.03 | -0.017 ± 0.018 | 0.0005 ± 0.0078 | 0.0055 ± 0.00071 | -0.0065 ± 0.012 | -0.0025 ± 0.0035 | 0.024 ± 0.052 | -0.0245 ± 0.00071 | -0.0015 ± 0.033 | -0.0035 ± 0.025 | -0.0125 ± 0.028 | -0.016 ± 0.041 | -0.018 ± 0.0085 | -0.027 ± 0.0099 | -0.0025 ± 0.035 | -0.091 ± 0.082 | -0.203 ± 0.011 | -0.761 ± 0.11 | -0.004 ± 0.028 | -0.01 ± 0.047 | -0.0055 ± 0.0035 | -0.0255 ± 0.019 | -0.0125 ± 0.028 | 0.004 ± 0.0042 | 0.003 ± 0.0042 | -0.0075 ± 0.015 | -0.0105 ± 0.016
